Some results were stated once for a whole list of compounds, not compound by compound. For at least one compound, name, drawing or mass did not settle the structure.
System: P. Aeruginosa and E. Aerogenes
Experiment: Example 7: pulp slurry bactericidal efficacy of N-halohydantoin compound
Type: cell-based
Details: 5 ppm initial halogen
Procedure: The addition of 5,5-dimethylhydantoin (DMH) to sodium hypochlorite solutions enhances the biocidal activity of sodium hypochlorite. The conditions of this experiment were a modification of ASTM E 600-91. Two biocide solutions were evaluated: NaOCl and NaOCl mixed with DMH in a 0.25:1 molar ratio. The NaOCl and the DMH were mixed prior to pulp introduction. The biocides were introduced to the pulp slurry 10 minutes prior to inoculation with 2×10^6 cfu/ml P. Aeruginosa and E. Aerogenes. The pulp slurry consisted of 1.3% ground aspen wood pulp and 200 ppm rosin adjusted to pH=5.0-5.5 with aluminum sulfate. Bacteria populations were measured 3 hours after pulp slurry inoculation. Final total halogen concentrations were measured at the time of bacterial population plating by sample centrifuging followed by standard DPD analyses. Biocides were neutralized with sodium thiosulfate prior to plating.
Specifically, Dantochlor®, a commercial halogenated hydantoin containing predominantly dichlorodimethylhydantoin and dichloroethylmethylhydantoin was used. The conditions were the same as those of Example 1.

## [Na+].[O-]Cl [NaOCl, sodium hypochlorite]
  log reduction of bacteria: greater than 3 log

— patent USRE39021E1, “Hydantoin-enhanced halogen efficacy in pulp and paper applications” (Lonza Inc., priority 1994, dated 2006)
